In publication PMC4691244 one finds binding data, which are given here for 4 molecules.

Sequences of proteins named here, by UniProt entry; tags and fusion partners are left off.
UniProt Q9Y580: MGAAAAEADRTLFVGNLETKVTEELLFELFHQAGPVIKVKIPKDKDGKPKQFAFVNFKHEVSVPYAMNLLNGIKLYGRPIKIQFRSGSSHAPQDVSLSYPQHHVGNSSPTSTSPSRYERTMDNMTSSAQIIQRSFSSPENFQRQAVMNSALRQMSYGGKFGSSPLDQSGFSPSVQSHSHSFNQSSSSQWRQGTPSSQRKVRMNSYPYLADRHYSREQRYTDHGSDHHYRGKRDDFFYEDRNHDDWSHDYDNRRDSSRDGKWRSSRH

Where two headings read alike, the source gives them in different places. Results are given in words; binding and its absence hold for the method and conditions named. Binding seen in cells or lysates may run through a third protein. These calls come from enrichment with a bait or labelling near it, and not all partners need be listed. No binding means not detected with the bait. For some assays here: Where a sequence is shown, tags or fusion partners need not be part of it.

Holding throughout (experiment): affinity purification with mass spectrometry; immunoprecipitation of T7-DGCR8, FLAG-DGCR8 and FLAG-Drosha with their controls; whole gel lanes analysed by mass spectrometry
For assay [1], the target named is T1, T7-DGCR8 (human) (UniProt Q8WYQ5).
T1 sequence: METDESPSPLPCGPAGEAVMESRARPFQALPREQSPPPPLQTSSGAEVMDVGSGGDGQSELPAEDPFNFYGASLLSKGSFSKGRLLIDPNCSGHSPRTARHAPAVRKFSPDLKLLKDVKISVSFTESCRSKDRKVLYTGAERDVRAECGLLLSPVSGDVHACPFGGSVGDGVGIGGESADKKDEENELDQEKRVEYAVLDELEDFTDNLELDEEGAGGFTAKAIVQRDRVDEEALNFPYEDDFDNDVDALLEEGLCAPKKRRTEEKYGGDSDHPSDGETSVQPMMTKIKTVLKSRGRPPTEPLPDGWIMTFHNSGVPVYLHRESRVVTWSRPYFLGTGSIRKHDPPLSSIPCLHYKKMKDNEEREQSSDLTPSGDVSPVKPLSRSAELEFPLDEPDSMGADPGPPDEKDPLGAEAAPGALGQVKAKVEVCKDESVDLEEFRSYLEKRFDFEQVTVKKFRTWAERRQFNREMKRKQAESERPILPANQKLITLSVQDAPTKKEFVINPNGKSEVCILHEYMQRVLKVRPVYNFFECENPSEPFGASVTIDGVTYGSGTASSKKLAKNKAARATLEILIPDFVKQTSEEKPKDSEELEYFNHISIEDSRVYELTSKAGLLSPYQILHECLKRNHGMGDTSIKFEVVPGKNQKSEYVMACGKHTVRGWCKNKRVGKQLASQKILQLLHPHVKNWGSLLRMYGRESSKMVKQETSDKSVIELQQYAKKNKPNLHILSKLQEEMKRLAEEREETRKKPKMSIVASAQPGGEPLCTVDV

Assay [2] addresses T2, FLAG-DGCR8 (human) (UniProt Q8WYQ5).
T2 sequence: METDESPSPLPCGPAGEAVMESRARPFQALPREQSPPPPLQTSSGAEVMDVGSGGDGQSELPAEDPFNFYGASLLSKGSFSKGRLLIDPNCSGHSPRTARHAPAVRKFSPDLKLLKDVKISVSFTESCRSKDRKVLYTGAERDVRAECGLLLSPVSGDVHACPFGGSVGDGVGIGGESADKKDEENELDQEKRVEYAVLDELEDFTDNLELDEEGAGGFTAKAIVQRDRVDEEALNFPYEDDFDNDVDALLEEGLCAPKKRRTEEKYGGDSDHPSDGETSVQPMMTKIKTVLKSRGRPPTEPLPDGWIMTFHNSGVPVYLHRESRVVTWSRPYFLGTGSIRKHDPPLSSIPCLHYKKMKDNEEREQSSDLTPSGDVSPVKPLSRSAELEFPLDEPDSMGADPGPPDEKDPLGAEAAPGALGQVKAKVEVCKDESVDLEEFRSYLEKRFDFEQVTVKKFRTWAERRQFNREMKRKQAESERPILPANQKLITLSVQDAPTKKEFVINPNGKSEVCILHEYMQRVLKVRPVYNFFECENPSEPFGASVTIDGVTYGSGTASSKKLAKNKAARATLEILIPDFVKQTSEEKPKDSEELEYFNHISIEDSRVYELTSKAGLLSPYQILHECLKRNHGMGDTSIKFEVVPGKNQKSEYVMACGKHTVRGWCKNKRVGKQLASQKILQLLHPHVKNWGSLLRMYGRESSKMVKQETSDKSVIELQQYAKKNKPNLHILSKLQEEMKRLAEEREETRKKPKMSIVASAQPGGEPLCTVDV

For assay [3], the target named is T3, T7-DGCR8 (human), Q8WYQ5.
T3 chain: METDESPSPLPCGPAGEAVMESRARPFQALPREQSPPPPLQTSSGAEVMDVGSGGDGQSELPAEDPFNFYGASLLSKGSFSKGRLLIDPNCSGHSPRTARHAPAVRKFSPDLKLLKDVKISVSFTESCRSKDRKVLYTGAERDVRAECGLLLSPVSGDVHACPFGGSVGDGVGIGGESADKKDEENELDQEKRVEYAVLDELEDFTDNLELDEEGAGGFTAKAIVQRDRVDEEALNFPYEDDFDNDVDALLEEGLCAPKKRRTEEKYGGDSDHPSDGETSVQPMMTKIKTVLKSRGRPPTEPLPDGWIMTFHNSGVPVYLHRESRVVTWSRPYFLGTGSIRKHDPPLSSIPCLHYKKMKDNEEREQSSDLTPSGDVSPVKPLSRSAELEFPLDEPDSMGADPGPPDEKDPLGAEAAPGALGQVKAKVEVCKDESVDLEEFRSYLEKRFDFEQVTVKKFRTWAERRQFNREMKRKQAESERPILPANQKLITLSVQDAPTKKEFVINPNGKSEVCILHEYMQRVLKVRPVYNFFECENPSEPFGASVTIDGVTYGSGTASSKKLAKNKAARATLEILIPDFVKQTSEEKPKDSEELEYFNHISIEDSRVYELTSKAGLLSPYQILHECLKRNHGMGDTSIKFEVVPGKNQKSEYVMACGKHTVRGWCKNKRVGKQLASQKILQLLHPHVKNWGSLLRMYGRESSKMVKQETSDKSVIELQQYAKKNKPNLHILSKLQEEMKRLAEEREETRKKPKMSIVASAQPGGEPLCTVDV
The note with it: remark: other sources report otherwise.

Assay [4] has as its target T4, FLAG-DGCR8 (human), Q8WYQ5.
T4 chain: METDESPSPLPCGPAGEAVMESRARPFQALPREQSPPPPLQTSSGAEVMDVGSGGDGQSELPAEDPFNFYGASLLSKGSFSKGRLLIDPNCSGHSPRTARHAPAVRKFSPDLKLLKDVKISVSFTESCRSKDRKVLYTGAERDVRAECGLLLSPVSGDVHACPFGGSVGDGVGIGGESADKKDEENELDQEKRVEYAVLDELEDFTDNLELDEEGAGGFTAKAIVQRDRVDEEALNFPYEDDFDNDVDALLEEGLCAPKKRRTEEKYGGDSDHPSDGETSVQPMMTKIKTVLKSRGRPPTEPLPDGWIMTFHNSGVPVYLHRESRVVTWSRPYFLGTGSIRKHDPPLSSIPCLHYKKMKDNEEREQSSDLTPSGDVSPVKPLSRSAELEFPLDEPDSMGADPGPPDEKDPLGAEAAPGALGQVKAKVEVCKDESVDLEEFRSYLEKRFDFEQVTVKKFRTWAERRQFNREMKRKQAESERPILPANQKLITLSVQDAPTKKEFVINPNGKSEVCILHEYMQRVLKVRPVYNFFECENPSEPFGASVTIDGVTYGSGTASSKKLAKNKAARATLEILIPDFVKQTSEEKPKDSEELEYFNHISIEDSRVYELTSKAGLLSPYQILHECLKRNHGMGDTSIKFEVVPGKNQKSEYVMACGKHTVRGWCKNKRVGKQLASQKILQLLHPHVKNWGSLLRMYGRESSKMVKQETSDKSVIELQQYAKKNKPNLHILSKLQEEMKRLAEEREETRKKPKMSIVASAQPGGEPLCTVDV
The note with it: remark: other sources report otherwise.

Assay [5] concerns the target T1, T7-DGCR8 (human). The source holds these as a separate data set.
The target in assay [6] is T2, FLAG-DGCR8 (human). The source holds these as a separate data set.

Regarding RBM7 (from UniProt Q9Y580 1-266), the binding result in assay [1] and in assay [2] was “no binding” each time.

B1: hDIS3, Q9Y2L1 1-958 (enzyme)
chain: MLKSKTFLKKTRAGGVMKIVREHYLRDDIGCGAPGCAACGGAHEGPALEPQPQDPASSVCPQPHYLLPDTNVLLHQIDVLEDPAIRNVIVLQTVLQEVRNRSAPVYKRIRDVTNNQEKHFYTFTNEHHRETYVEQEQGENANDRNDRAIRVAAKWYNEHLKKMSADNQLQVIFITNDRRNKEKAIEEGIPAFTCEEYVKSLTANPELIDRLACLSEEGNEIESGKIIFSEHLPLSKLQQGIKSGTYLQGTFRASRENYLEATVWIHGDNEENKEIILQGLKHLNRAVHEDIVAVELLPKSQWVAPSSVVLHDEGQNEEDVEKEEETERMLKTAVSEKMLKPTGRVVGIIKRNWRPYCGMLSKSDIKESRRHLFTPADKRIPRIRIETRQASTLEGRRIIVAIDGWPRNSRYPNGHFVRNLGDVGEKETETEVLLLEHDVPHQPFSQAVLSFLPKMPWSITEKDMKNREDLRHLCICSVDPPGCTDIDDALHCRELENGNLEVGVHIADVSHFIRPGNALDQESARRGTTVYLCEKRIDMVPELLSSNLCSLKCDVDRLAFSCIWEMNHNAEILKTKFTKSVINSKASLTYAEAQLRIDSANMNDDITTSLRGLNKLAKILKKRRIEKGALTLSSPEVRFHMDSETHDPIDLQTKELRETNSMVEEFMLLANISVAKKIHEEFSEHALLRKHPAPPPSNYEILVKAARSRNLEIKTDTAKSLAESLDQAESPTFPYLNTLLRILATRCMMQAVYFCSGMDNDFHHYGLASPIYTHFTSPIRRYADVIVHRLLAVAIGADCTYPELTDKHKLADICKNLNFRHKMAQYAQRASVAFHTQLFFKSKGIVSEEAYILFVRKNAIVVLIPKYGLEGTVFFEEKDKPNPQLIYDDEIPSLKIEDTVFHVFDKVKVKIMLDSSNLQHQKIRMSLVEPQIPGISIPTDTSNMDLNGPKKKKMKLGK
Turning to B1, the binding result in assay [3] and in assay [4] was “no binding” in each case.

B2: hRRP6 (enzyme, UniProt Q01780 1-885)
chain: MAPPSTREPRVLSATSATKSDGEMVLPGFPDADSFVKFALGSVVAVTKASGGLPQFGDEYDFYRSFPGFQAFCETQGDRLLQCMSRVMQYHGCRSNIKDRSKVTELEDKFDLLVDANDVILERVGILLDEASGVNKNQQPVLPAGLQVPKTVVSSWNRKAAEYGKKAKSETFRLLHAKNIIRPQLKFREKIDNSNTPFLPKIFIKPNAQKPLPQALSKERRERPQDRPEDLDVPPALADFIHQQRTQQVEQDMFAHPYQYELNHFTPADAVLQKPQPQLYRPIEETPCHFISSLDELVELNEKLLNCQEFAVDLEHHSYRSFLGLTCLMQISTRTEDFIIDTLELRSDMYILNESLTDPAIVKVFHGADSDIEWLQKDFGLYVVNMFDTHQAARLLNLGRHSLDHLLKLYCNVDSNKQYQLADWRIRPLPEEMLSYARDDTHYLLYIYDKMRLEMWERGNGQPVQLQVVWQRSRDICLKKFIKPIFTDESYLELYRKQKKHLNTQQLTAFQLLFAWRDKTARREDESYGYVLPNHMMLKIAEELPKEPQGIIACCNPVPPLVRQQINEMHLLIQQAREMPLLKSEVAAGVKKSGPLPSAERLENVLFGPHDCSHAPPDGYPIIPTSGSVPVQKQASLFPDEKEDNLLGTTCLIATAVITLFNEPSAEDSKKGPLTVAQKKAQNIMESFENPFRMFLPSLGHRAPVSQAAKFDPSTKIYEISNRWKLAQVQVQKDSKEAVKKKAAEQTAAREQAKEACKAAAEQAISVRQQVVLENAAKKRERATSDPRTTEQKQEKKRLKISKKPKDPEPPEKEFTPYDYSQSDFKAFAGNSKSKVSSQFDPNKQTPSGKKCIAAKKIKQSVGNKSMSFPTGKSDRGFRYNWPQR
Regarding B2, the binding entry in assay [5] and in assay [6] was “binds” throughout.

B3: ZCCHC7 (protein, UniProt Q8N3Z6 1-543)
chain: MMFGGYETIEAYEDDLYRDESSSELSVDSEVEFQLYSQIHYAQDLDDVIREEEHEEKNSGNSESSSSKPNQKKLIVLSDSEVIQLSDGSEVITLSDEDSIYRCKGKNVRVQAQENAHGLSSSLQSNELVDKKCKSDIEKPKSEERSGVIREVMIIEVSSSEEEESTISEGDNVESWMLLGCEVDDKDDDILLNLVGCENSVTEGEDGINWSISDKDIEAQIANNRTPGRWTQRYYSANKNIICRNCDKRGHLSKNCPLPRKVRRCFLCSRRGHLLYSCPAPLCEYCPVPKMLDHSCLFRHSWDKQCDRCHMLGHYTDACTEIWRQYHLTTKPGPPKKPKTPSRPSALAYCYHCAQKGHYGHECPEREVYDPSPVSPFICYYDDKYEIQEREKRLKQKIKVLKKNGVIPEPSKLPYIKAANENPHHDIRKGRASWKSNRWPQENKETQKEMKNKNRNWEKHRKADRHREVDEDFPRGPKTYSSPGSFKTQKPSKPFHRSSHYHTSREDKSPKEGKRGKQKKKERCWEDDDNDNLFLIKQRKKKS
B3: the binding result in assay [5] and in assay [6] was “no binding” throughout.
